Measurements reported in the supplement of paper PMC10849652.
The other results are listed elsewhere or left out.

Protein sequences, listed by entry. Tags and fused reporters are not part of them. Lines headed by an entry give the natural chain unless they say otherwise; changes in a name come on top.
UniProt Q99747: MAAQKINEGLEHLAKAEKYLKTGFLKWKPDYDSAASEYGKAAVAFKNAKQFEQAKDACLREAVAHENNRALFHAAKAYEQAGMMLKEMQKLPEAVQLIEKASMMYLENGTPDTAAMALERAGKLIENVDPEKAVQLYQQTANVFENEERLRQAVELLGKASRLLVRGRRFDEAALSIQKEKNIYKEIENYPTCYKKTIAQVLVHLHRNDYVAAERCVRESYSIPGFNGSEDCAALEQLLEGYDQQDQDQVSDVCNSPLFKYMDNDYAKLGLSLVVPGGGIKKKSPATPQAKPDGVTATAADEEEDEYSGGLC
UniProt Q6XQN6: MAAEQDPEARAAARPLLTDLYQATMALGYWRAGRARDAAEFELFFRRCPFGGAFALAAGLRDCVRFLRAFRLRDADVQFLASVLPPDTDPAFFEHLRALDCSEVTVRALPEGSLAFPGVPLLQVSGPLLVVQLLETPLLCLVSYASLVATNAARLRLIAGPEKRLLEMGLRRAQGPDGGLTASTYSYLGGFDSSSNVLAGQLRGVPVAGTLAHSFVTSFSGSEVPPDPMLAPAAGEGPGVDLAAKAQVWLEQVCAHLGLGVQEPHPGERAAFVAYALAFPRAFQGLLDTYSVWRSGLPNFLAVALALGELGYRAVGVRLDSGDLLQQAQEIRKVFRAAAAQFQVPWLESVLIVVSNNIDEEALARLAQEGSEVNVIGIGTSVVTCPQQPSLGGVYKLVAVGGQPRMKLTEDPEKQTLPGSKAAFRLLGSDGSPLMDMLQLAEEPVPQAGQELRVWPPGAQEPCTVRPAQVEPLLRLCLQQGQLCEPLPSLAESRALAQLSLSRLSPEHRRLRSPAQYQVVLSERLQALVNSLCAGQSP
UniProt Q15003, whole entry, looked up: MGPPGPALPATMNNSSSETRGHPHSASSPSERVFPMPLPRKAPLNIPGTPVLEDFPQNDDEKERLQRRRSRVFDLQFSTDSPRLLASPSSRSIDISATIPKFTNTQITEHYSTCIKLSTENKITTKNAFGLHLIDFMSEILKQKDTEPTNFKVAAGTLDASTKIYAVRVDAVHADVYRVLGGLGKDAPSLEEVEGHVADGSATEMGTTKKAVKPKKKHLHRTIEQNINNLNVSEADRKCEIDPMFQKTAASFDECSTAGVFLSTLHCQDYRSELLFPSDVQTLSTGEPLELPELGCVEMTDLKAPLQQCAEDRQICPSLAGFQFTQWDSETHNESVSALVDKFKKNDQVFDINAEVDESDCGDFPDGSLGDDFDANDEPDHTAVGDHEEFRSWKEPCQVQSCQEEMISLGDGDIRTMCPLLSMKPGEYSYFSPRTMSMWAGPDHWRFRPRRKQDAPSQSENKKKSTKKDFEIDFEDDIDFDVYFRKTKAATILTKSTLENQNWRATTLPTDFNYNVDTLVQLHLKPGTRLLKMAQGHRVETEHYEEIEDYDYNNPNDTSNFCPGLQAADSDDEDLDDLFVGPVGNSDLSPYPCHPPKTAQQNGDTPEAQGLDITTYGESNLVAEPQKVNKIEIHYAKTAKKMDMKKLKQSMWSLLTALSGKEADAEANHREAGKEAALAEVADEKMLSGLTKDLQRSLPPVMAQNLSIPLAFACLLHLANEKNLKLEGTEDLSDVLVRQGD
UniProt Q969H8: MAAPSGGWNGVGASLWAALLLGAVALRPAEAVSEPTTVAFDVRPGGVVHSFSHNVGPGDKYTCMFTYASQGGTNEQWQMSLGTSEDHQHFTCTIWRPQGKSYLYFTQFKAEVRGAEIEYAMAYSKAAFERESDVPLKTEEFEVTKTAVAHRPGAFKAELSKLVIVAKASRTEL
UniProt Q9UJ70, whole entry, looked up: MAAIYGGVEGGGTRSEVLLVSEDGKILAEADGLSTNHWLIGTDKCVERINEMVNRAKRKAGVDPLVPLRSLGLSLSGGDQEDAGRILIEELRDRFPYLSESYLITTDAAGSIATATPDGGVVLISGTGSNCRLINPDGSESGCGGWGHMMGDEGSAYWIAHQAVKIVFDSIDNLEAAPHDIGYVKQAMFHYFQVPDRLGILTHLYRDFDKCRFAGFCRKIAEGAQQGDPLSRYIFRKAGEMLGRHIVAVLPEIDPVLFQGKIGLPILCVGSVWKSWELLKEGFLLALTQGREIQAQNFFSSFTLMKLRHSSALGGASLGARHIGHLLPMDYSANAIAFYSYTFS
UniProt Q9UM54, whole entry, looked up: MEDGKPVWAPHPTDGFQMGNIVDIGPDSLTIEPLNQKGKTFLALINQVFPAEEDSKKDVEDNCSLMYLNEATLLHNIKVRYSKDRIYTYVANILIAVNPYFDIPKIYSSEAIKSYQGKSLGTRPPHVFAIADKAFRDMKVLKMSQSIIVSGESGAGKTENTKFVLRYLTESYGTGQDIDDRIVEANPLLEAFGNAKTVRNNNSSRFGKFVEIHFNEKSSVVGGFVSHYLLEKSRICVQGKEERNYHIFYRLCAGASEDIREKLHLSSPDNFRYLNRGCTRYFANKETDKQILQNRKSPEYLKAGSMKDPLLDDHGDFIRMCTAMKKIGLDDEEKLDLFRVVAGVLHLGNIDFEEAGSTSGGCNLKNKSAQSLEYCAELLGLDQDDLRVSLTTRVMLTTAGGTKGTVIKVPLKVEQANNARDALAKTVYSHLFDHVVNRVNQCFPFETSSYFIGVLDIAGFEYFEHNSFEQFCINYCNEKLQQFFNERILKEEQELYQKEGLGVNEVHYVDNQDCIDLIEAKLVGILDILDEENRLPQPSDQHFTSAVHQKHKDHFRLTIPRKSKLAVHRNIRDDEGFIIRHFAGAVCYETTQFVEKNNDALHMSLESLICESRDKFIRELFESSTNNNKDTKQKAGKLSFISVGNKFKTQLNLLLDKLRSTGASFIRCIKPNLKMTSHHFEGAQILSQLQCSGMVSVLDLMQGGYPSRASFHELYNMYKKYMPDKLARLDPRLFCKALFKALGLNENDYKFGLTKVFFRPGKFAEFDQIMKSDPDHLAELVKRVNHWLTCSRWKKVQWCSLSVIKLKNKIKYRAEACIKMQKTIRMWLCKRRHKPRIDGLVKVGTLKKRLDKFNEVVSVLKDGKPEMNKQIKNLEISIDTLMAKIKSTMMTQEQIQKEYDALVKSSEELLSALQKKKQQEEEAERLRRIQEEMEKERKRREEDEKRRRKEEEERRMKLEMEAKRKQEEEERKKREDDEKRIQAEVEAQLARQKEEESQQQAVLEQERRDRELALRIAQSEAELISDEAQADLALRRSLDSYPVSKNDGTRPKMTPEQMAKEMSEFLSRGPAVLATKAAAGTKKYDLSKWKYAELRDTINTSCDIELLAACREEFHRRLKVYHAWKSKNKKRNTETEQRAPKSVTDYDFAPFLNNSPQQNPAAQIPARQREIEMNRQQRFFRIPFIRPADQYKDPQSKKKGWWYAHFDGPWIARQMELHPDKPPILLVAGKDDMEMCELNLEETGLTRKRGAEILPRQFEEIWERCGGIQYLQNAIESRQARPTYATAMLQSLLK
UniProt Q96DR8: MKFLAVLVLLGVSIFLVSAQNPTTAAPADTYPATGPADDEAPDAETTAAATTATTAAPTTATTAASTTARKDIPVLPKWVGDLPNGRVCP
UniProt Q8NCW5: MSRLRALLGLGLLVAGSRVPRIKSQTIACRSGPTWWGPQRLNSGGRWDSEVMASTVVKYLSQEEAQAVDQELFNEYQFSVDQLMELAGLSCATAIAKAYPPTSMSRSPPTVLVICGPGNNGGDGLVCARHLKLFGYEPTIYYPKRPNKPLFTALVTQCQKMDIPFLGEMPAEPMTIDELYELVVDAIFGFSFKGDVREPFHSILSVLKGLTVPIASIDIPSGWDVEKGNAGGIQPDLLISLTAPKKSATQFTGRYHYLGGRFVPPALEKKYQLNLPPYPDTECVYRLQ
UniProt Q9BSU3: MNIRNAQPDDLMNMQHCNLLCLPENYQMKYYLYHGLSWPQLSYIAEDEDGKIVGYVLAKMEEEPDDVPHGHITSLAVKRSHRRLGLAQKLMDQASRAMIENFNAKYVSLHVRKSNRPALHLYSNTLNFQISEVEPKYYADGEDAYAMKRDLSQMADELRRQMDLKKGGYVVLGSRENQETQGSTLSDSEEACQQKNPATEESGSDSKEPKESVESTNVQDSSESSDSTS
UniProt Q9HD67, whole entry, looked up: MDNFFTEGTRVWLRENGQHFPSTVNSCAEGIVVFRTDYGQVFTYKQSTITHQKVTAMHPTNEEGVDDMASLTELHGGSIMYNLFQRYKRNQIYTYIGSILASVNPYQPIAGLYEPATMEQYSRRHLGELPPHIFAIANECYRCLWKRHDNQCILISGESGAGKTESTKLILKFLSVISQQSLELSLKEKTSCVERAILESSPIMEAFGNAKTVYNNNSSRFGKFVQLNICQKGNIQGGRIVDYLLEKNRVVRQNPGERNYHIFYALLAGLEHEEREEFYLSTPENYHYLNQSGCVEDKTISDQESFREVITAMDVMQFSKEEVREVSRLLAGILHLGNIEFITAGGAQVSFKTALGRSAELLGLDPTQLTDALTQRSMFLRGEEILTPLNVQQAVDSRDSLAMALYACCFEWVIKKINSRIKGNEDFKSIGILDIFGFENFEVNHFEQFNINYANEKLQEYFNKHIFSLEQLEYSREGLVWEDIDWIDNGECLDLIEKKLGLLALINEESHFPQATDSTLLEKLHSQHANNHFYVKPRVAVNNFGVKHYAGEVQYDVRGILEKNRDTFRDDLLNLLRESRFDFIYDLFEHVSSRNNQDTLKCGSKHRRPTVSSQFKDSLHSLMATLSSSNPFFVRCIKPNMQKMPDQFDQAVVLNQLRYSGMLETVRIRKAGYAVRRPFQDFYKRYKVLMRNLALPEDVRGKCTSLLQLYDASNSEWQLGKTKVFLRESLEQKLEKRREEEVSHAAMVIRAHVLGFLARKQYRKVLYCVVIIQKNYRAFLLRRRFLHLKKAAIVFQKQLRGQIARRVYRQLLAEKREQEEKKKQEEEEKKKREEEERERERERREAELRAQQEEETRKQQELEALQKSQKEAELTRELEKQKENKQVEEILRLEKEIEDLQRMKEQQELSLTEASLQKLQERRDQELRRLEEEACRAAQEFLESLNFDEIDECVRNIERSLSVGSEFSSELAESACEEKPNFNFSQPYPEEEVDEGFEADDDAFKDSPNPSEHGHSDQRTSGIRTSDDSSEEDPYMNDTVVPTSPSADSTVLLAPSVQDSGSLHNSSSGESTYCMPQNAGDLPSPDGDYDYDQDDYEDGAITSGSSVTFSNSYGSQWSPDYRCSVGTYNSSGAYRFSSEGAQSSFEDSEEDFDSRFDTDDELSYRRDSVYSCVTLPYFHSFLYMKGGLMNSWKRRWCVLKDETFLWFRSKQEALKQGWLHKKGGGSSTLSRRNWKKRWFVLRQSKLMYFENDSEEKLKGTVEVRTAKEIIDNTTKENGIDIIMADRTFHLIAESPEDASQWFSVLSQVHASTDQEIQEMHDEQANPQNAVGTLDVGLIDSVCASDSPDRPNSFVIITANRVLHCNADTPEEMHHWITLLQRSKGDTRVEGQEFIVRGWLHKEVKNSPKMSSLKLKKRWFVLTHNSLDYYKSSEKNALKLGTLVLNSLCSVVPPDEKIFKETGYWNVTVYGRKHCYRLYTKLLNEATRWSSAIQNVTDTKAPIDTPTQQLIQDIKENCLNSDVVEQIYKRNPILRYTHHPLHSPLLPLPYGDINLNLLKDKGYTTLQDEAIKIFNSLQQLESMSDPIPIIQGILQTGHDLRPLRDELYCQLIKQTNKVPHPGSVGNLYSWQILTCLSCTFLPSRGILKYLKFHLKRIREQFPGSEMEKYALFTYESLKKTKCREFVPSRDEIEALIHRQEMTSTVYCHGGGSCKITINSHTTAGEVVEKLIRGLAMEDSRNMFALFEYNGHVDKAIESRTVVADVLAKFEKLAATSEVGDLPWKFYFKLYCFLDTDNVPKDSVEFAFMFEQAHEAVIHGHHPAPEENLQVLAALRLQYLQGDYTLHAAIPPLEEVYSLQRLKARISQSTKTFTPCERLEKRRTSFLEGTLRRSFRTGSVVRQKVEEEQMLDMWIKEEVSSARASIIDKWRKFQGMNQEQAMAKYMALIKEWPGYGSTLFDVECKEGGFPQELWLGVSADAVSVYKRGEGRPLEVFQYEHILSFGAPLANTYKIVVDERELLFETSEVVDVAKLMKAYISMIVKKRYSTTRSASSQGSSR
UniProt P55209: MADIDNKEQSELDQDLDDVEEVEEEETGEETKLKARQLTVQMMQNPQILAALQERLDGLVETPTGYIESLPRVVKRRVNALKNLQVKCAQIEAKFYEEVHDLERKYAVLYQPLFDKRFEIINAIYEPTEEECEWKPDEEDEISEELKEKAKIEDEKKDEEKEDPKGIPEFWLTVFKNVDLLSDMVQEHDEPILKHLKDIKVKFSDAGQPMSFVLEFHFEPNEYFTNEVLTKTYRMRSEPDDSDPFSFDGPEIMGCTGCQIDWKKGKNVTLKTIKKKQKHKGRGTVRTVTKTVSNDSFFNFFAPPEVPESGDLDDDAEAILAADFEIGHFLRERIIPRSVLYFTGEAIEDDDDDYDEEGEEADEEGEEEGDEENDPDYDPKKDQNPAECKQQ
UniProt Q9BRA0: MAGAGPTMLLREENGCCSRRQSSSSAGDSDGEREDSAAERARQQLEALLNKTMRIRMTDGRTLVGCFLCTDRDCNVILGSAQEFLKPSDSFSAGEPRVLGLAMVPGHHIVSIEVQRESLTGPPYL

Assays:
Assay in all cases: log2 fold change, soluble protein after heating vs DMSO (PISA); higher = thermal stabilisation; K562 lysate, 10 uM; active = over 0.2 and 3.5 SD of the protein, either way, in both replicates (recomputed)
erlotinib = compound: C#Cc1cccc(Nc2ncnc3cc(OCCOC)c(OCCOC)cc23)c1 [erlotinib]
Outline: (§1)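 Thermal stability, expressed as log-two fold change relative to solvent controls, is given from duplicates. Crude K562 extract in PBS pH 7.4 with 1 mM MgCl2, at 1 mg/mL protein, was treated with 10 μM compound for 30 min and heated in aliquots for 3 min across 48°C-58°C. After pooling, adjustment to 0.5% NP-40 at 4°C and centrifugation at 21,000xg for 90 min, supernatant protein was measured by TMTpro 16plex LC-MS/MS with channel sums equalised.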

[1] = compound: C/C(=N\NC(=O)C1=CC(=CC=C1)S(=O)(=O)N2CCOCC2)/C3=C(C=CC(=C3)Cl)O
Outline: as §1

[2] = compound: C1=CC(=CC=C1C2=NC3=C(N2)C=C(C=C3)C(=O)N)OC4=CC=C(C=C4)Cl
Outline: as §1

[3] = compound: C1=CC2=C(C=CC(=C2)/C=C\3/C(=O)NC(=NCC4=CC=CS4)S3)N=C1
Outline: as §1

[4] = compound: C1=CC2=NC=CN=C2C=C1/C=C/3\C(=O)NC(=O)S3
Outline: as §1

[5] = compound: C1=CC=C(C=C1)C2=NC(=C(N2)C3=CC=NC=C3)C4=CC(=C(C=C4)Cl)O
Outline: as §1

[6] = compound: C1=CC=C2C(=C1)C3=NNC4=CC=CC(=C43)C2=O
Outline: as §1

[7] = compound: C1CCN(C1)C(=O)NC2=CC=CC(=C2)NC3=NC=C(C(=N3)NCCC4=CN=CN4)Br
Outline: as §1

[8] = compound: C1CN(CCC1(CC2=CC=C(C=C2)Cl)N)C3=NC=NC4=C3C=CN4
Outline: as §1

IRAK-1-4 Inhibitor I = compound: C1COCCN1CCN2C3=CC=CC=C3N=C2NC(=O)C4=CC(=CC=C4)[N+](=O)[O-] [IRAK-1-4 Inhibitor I]
Outline: as §1

Measured: log2 fold change

NCAPG2 (UniProt Q86XI2)
inactive: erlotinib 0.023 | [1] -0.026 | [2] -0.019 | [3] 0.001 | [4] 0.006 | [5] -0.004 | [6] -0.026 | [7] 0.023 | [8] -0.016 | IRAK-1-4 Inhibitor I 0.004

NAPG (UniProt Q99747)
inactive: erlotinib -0.009 | [1] -0.018 | [2] 0.017 | [3] -0.022 | [4] -0.001 | [5] 0.003 | [6] 0.022 | [7] -0.004 | [8] 0.003 | IRAK-1-4 Inhibitor I 0.011

MYCBP2 (UniProt O75592)
inactive: erlotinib 0.01 | [1] 0 | [2] 0.031 | [3] 0.008 | [4] -0.008 | [5] 0.031 | [6] -0.023 | [7] 0.004 | [8] 0.03 | IRAK-1-4 Inhibitor I 0.022

NAPRT (UniProt Q6XQN6)
inactive: erlotinib -0.064 | [1] 0 | [2] -0.01 | [3] -0.007 | [4] 0.006 | [5] -0.021 | [6] 0.012 | [7] -0.004 | [8] -0.039 | IRAK-1-4 Inhibitor I -0.019

NACA4P (UniProt Q9BZK3)
inactive: erlotinib -0.204 | [1] -0.024 | [2] 0.046 | [3] 0.042 | [4] -0.195 | [5] -0.023 | [6] 0.046 | [7] 0.031 | [8] -0.09 | IRAK-1-4 Inhibitor I -0.007

NCDN isoform 3 (UniProt Q9UBB6)
inactive: erlotinib 0.031 | [1] -0.033 | [2] 0.035 | [3] -0.01 | [4] 0.007 | [5] -0.012 | [6] -0.087 | [7] -0.003 | [8] -0.021 | IRAK-1-4 Inhibitor I -0.005

NCAPH (UniProt Q15003)
inactive: erlotinib 0.036 | [1] -0.008 | [2] -0.006 | [3] -0.007 | [4] -0.002 | [5] -0.012 | [6] -0.063 | [7] -0.008 | [8] -0.018 | IRAK-1-4 Inhibitor I 0

MYDGF (UniProt Q969H8)
inactive: erlotinib -0.014 | [1] -0.011 | [2] 0.05 | [3] 0.013 | [4] 0.002 | [5] -0.001 | [6] -0.017 | [7] 0 | [8] -0.005 | IRAK-1-4 Inhibitor I -0.012

NBN (UniProt O60934)
inactive: erlotinib -0.026 | [1] 0.068 | [2] 0.051 | [3] -0.004 | [4] -0.024 | [5] 0.013 | [6] -0.044 | [7] -0.005 | [8] 0.013 | IRAK-1-4 Inhibitor I 0.007

NABP2 (UniProt Q9BQ15)
inactive: erlotinib -0.011 | [1] -0.038 | [2] 0.065 | [3] -0.021 | [4] -0.005 | [5] 0.05 | [6] 0.006 | [7] 0.014 | [8] 0.075 | IRAK-1-4 Inhibitor I -0.01

NAGK isoform 2 (UniProt Q9UJ70)
inactive: erlotinib 0.003 | [1] 0.041 | [2] -0.012 | [3] -0.053 | [4] 0.013 | [5] 0.026 | [6] 0.007 | [7] 0.007 | [8] 0.028 | IRAK-1-4 Inhibitor I -0.018

MYO6 isoform 6 (UniProt Q9UM54)
inactive: erlotinib -0.032 | [1] -0.175 | [2] 0.002 | [3] 0.072 | [4] -0.013 | [5] -0.013 | [6] -0.09 | [7] 0.013 | [8] 0.011 | IRAK-1-4 Inhibitor I 0.005

N6AMT1 (UniProt Q9Y5N5)
inactive: erlotinib 0.022 | [1] -0.053 | [2] -0.082 | [3] 0.02 | [4] -0.097 | [5] 0.013 | [6] -0.272 | [7] 0.005 | [8] -0.013 | IRAK-1-4 Inhibitor I -0.022

MYO1C (UniProt O00159)
inactive: erlotinib -0.002 | [1] -0.005 | [2] 0.003 | [3] 0.017 | [4] 0.006 | [5] 0.047 | [6] -0.003 | [7] -0.021 | [8] -0.032 | IRAK-1-4 Inhibitor I -0.055

NDC1 (UniProt Q9BTX1)
inactive: erlotinib -0.002 | [1] 0.015 | [2] 0.026 | [3] 0.047 | [4] 0.031 | [5] -0.005 | [6] -0.077 | [7] 0.013 | [8] 0.024 | IRAK-1-4 Inhibitor I 0.026

MUCL1 (UniProt Q96DR8)
inactive: erlotinib -0.178 | [1] -0.159 | [2] -0.259 | [3] -0.366 | [4] 0.252 | [5] -0.042 | [6] 0.604 | [7] 0.278 | [8] -0.559 | IRAK-1-4 Inhibitor I -0.963

NANP (UniProt Q8TBE9)
inactive: erlotinib -0.113 | [1] 0.006 | [2] -0.099 | [3] -0.046 | [4] -0.001 | [5] -0.004 | [6] 0.028 | [7] -0.021 | [8] -0.052 | IRAK-1-4 Inhibitor I -0.003

NAPB (UniProt Q9H115)
inactive: erlotinib -0.016 | [1] -0.311 | [2] 0.007 | [3] -0.01 | [4] 0.043 | [5] 0.029 | [6] -0.021 | [7] 0.009 | [8] 0.029 | IRAK-1-4 Inhibitor I 0.008

NCEH1 (UniProt Q6PIU2)
inactive: erlotinib -0.019 | [1] 0.039 | [2] 0.001 | [3] 0.048 | [4] -0.008 | [5] 0.008 | [6] -0.064 | [7] -0.002 | [8] 0.004 | IRAK-1-4 Inhibitor I 0.02

NBDY, A0A0U1RRE5
inactive: erlotinib 0.281 | [1] 0.051 | [2] 0.025 | [3] 0.076 | [4] 0.001 | [5] 0.047 | [6] -0.361 | IRAK-1-4 Inhibitor I -0.031

NAXE (UniProt Q8NCW5)
inactive: erlotinib -0.028 | [1] -0.03 | [2] -0.005 | [3] 0.012 | [4] -0.038 | [5] 0.011 | [6] 0.038 | [7] -0.021 | [8] 0.046 | IRAK-1-4 Inhibitor I 0.019

NAA11 (UniProt Q9BSU3)
inactive: erlotinib -0.031 | [1] -0.021 | [2] 0.045 | [3] 0.048 | [4] -0.102 | [5] 0.031 | [6] -0.208 | [7] 0.004 | [8] 0.04 | IRAK-1-4 Inhibitor I -0.041

MYO10 (UniProt Q9HD67)
inactive: erlotinib -0.044 | [1] -0.13 | [2] 0.19 | [3] 0.017 | [4] -0.062 | [5] 0.014 | [6] -0.16 | IRAK-1-4 Inhibitor I 0.102

NAA20 (UniProt P61599)
inactive: erlotinib 0.003 | [1] 0.006 | [2] -0.07 | [3] 0.06 | [4] -0.074 | [5] -0.023 | [6] -0.037 | [7] -0.046 | [8] 0.017 | IRAK-1-4 Inhibitor I -0.009

MYO1D (UniProt O94832)
inactive: erlotinib 0.01 | [1] -0.064 | [2] -0.022 | [3] 0.004 | [4] 0.006 | [5] 0.01 | [6] -0.083 | [7] 0.015 | [8] 0.031 | IRAK-1-4 Inhibitor I -0.027

NAP1L1 isoform 3 (UniProt P55209)
inactive: erlotinib 0 | [1] -0.12 | [2] 0.016 | [3] -0.03 | [4] 0.07 | [5] 0.077 | [6] -0.097 | [7] -0.077 | [8] 0.014 | IRAK-1-4 Inhibitor I 0.038

MYH14 isoform 2 (UniProt Q7Z406)
inactive: erlotinib -0.005 | [1] 0.018 | [2] -0.003 | [3] -0.002 | [4] -0.03 | [5] -0.015 | [6] -0.043 | [7] -0.004 | [8] 0.008 | IRAK-1-4 Inhibitor I -0.009

MYO9A isoform 4 (UniProt B2RTY4)
inactive: erlotinib 0.074 | [1] 0.008 | [2] -0.125 | [3] -0.045 | [4] 0.153 | [5] -0.007 | [6] -0.05 | IRAK-1-4 Inhibitor I -0.059

NAA38 isoform 2 (UniProt Q9BRA0)
inactive: erlotinib 0.049 | [1] -0.065 | [2] 0.013 | [3] 0.019 | [4] -0.045 | [5] -0.055 | [6] 0.008 | [7] -0.052 | [8] 0.008 | IRAK-1-4 Inhibitor I 0.031

NACC1 (UniProt Q96RE7)
inactive: erlotinib -0.006 | [1] 0.038 | [2] 0.036 | [3] -0.023 | [4] -0.004 | [5] 0.01 | [6] -0.011 | [7] 0.023 | [8] -0.014 | IRAK-1-4 Inhibitor I 0.009
